# Measurements from PubChem BioAssay AID1671190 (National Center for Advancing Translational Sciences (NCATS), 2021).
# Protein sequences, listed by entry. Tags and fused reporters are not part of them.
# UniProt P18054, whole entry, looked up: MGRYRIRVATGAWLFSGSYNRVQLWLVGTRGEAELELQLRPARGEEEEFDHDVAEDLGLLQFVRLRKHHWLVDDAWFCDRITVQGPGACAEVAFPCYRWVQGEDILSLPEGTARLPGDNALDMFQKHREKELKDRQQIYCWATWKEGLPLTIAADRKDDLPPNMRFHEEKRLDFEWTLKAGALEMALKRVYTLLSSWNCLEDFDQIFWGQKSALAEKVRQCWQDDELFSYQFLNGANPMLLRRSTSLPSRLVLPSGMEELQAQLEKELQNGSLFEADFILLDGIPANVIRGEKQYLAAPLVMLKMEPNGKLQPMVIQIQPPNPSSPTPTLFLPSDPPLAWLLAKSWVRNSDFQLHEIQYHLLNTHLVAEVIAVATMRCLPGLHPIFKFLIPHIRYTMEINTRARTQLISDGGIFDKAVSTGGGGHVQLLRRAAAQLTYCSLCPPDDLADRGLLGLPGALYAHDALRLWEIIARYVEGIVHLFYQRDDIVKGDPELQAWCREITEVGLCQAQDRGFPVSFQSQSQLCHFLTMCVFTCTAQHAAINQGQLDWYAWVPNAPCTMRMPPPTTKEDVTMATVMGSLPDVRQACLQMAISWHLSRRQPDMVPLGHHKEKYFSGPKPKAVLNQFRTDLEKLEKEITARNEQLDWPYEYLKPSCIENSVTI
# About 6,100 (1.1%) of roughly 580,000 compounds were called active. Inconclusive means that the source gave no clear call. Such entries were picked first, then a sample of the others. Calls follow the shape of the dose curve; as a rule, active = well fitted inhibition curve with a large enough effect; inconclusive = small, poorly fitted or top-dose-only effect, or another doubt; inactive = no such curve, though single readings can be large or run the other way. Where the call is inconclusive, the potency comes from a doubtful curve fit.
# Target: Polyunsaturated fatty acid lipoxygenase ALOX12 (Homo sapiens) (UniProt P18054)
# Assay: Primary qHTS assay for inhibitors of human arachidonate 12S-lipoxygenase (ALOX12): Round 2
# Conditions: purified 12hLO, xylenol orange hydroperoxide absorbance; activity change, negative = inhibition: at 108 µM (top of the series) unless noted
# Method in brief: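 Purified human 12hLO (150 nM final) in 25 mM Hepes, 0.01% Triton X-100, pH 7.0 was preincubated 15 min at room temperature with compound. Then 40 uM arachidonic acid was added, 30 min. Hydroperoxide was read by Fe-XO absorbance ratio 573/405 nm.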
# % is scaled to controls: 0 for no effect and ±100 for the full control effect; potency is read from the fitted curve at half-maximal effect.
Structure (SMILES),Potency,"activity change, negative = inhibition"
COc1ccccc1-c1cn2c(n1)CO[C@@H](CNC(=O)c1ccc(Cl)cc1)C2,"inconclusive: 7.94 µM [inhibitor, full curve, poor fit]",–
CCc1ccc(NC(=S)N(CC)c2ccccc2)cc1,"inconclusive: 35.5 µM [inhibitor, partial curve, poor fit]",–
Cc1ccc(NC(=O)C2CCN(C(=O)c3ncn4c3COC(c3ccc(F)cc3)C4)CC2)c(Cl)c1 (centres undefined),inactive,–
COc1ccc(C(=O)NCCc2ccccn2)cc1S(=O)(=O)Nc1ccc(Br)cc1,"inconclusive: 39.8 µM [inhibitor, partial curve, poor fit]",–
Cc1ccc(C)c(NS(=O)(=O)c2ccc3c(c2)CCCN3C(=O)C2CCC2)c1,"inconclusive: 11.2 µM [inhibitor, partial curve, poor fit]",–
Cc1cccc(-n2c3c(cc(C#N)c2=O)C(=O)CC(c2ccccc2)C3)c1 (centres undefined),inactive,–
CCOc1c(Br)cc(/C=C/C(=O)c2ccc(OC)cc2)cc1OC,"inconclusive: 126 µM [inhibitor, single point]",–
FC(F)(F)c1cc(-c2cccs2)nc(S)n1,"inconclusive: 44.7 µM [inhibitor, partial curve, poor fit]",–
O=C(COc1ccc(F)cc1)N1CCC(CCOc2ccccc2F)C1 (centres undefined),"inconclusive: 28.2 µM [inhibitor, full curve]",–
COC(=O)C(/C=C/c1ccccc1)(c1cn(C)c2ccccc12)C(Nc1ccccc1)c1ccccc1 (centres undefined),"inconclusive: 50.1 µM [inhibitor, partial curve, poor fit]",–
NC(=O)CSc1nnnn1-c1ccc(OC(F)(F)F)cc1,"inconclusive: 7.08 µM [inhibitor, full curve, poor fit]",–
O=C(CSCc1ccc(Cl)cc1Cl)Nc1ccc(O)cc1C(=O)O,"inconclusive: 63.1 µM [inhibitor, partial curve, poor fit]",–
COc1cccc(C(=O)N2CCN(c3cc(C(F)(F)F)nc(C)n3)CC2)c1,inactive,–
Cc1ccc(NC2CCCN(C(=O)CCN3CCOCC3)C2)cc1C (centres undefined),"inconclusive: 100 µM [inhibitor, partial curve, poor fit]",–
CCOC(=O)c1cnc2cc(C)nn2c1C,inactive,–
CCOc1ccccc1NC(=O)CSc1nnc(-c2cccnc2)o1,inactive,–
Cn1cnnc1CC1CCN(C(=O)Nc2ccccc2)C1 (centres undefined),inactive,–
C=CCNc1nc(Cl)nc(Nc2ccc(OCC)cc2)n1,"inconclusive: 15.8 µM [inhibitor, partial curve]",–
Cc1ccc(C(O)CNC(=O)c2ccccc2)cc1 (centres undefined),inactive,–
O=C1NC(=O)N(Cc2ccccc2)CC1Br (centres undefined),"inconclusive: 0.355 µM [inhibitor, full curve, poor fit]",–
COc1cccc(OC(C)CCN2CCC(C(O)(c3ccccc3)c3ccccc3)CC2)c1 (centres undefined),"inconclusive: 11.2 µM [inhibitor, partial curve, poor fit]",–
CC(=O)Nc1ccc(NC(=O)CSc2nnnn2-c2ccc(F)cc2)cc1,"inconclusive: 28.2 µM [inhibitor, partial curve, poor fit]",–
Cc1cccc(C)c1N=CN1c2ccccc2-n2cccc2C1c1ccc([N+](=O)[O-])cc1 (centres undefined),inactive,–

# Single entries from the list:
# Potency, `Cc1cccc(C)c1N=CN1c2ccccc2-n2cccc2C1c1ccc([N+](=O)[O-])cc1` (centres undefined) is entered as inactive
# Potency, `CCOc1c(Br)cc(/C=C/C(=O)c2ccc(OC)cc2)cc1OC` is entered as inconclusive: 126 µM [inhibitor, single point]

# Continued.

Structure (SMILES),Potency,"activity change, negative = inhibition"
O=C(NC1CCCCC1)c1ccc(S(=O)(=O)N2CCCC2)cc1,inactive,–
O=C(Nc1cccnc1)N1CCOC[C@H](Oc2ccc(C(F)(F)F)cc2)C1,inactive,–
C=CCn1c(CCc2cc(C(C)(C)C)c(O)c(C(C)(C)C)c2)n[nH]c1=S,active: 35.5 µM,–
CC(C)c1ccc(/C=C(/C#N)C(=O)Nc2cccc3ncccc23)cc1,active: 15.8 µM,–
CCOC(=O)C1CCCN(CCc2ccccc2)C1 (centres undefined),"inconclusive: 2.51 µM [inhibitor, full curve, poor fit]",–
COc1c(F)cc2[nH]c3c(c2c1F)CCNC3=O,inactive,–
CC(C)S(=O)(=O)N1CC[C@H]2C(=O)NCCCCCCN(Cc3ccncc3)[C@@H]2C1,inactive,–
CCCS(=O)(=O)c1nc(S(=O)(=O)c2ccc(C)cc2)c(N2CCOCC2)s1,inactive,–
COc1cccc(C#Cc2c(CO)[nH]c3ccccc23)c1,active: 50.1 µM,–
CS(=O)(=O)N1CCCc2cc(-c3csc(N)n3)ccc21,"inconclusive: 28.2 µM [inhibitor, single point]",–
Cc1nn(CC(=O)NCc2cccc(Br)c2)c(=O)c2cccn12,inactive,–
Cc1csc(CNC(=O)c2ccc(CNC(=O)c3cccs3)cc2)n1,"inconclusive: 2 µM [inhibitor, full curve, poor fit]",–
Cn1nnnc1SCC(=O)N1CCN(c2ccc(Cl)cc2)CC1,"inconclusive: 89.1 µM [inhibitor, single point]",–
COc1ccc(OC(=O)C23CC4CC(CC(Cl)(C4)C2)C3)cc1,inactive,–
CC(c1ccccc1)N(C)C(=O)NC1CCCC(C(F)(F)F)C1 (centres undefined),inactive,–
Cc1ccc(-n2nnc3c(N4CCN(C(=O)Cc5cccs5)CC4)ncnc32)cc1,"inconclusive: 63.1 µM [inhibitor, partial curve, poor fit]",–
CC1CCN(C(=O)CSc2n[nH]c(-c3cc(Br)ccc3O)n2)CC1,active: 31.6 µM,–
Cc1cnc(CC2CCN(C(=O)NCC(C)C)CC2)n1Cc1ccc(F)cc1,inactive,–
COc1ccccc1CNC(=O)CC1N=C2c3ccccc3N=C(SCC(=O)Nc3ccc(F)cc3)N2C1=O (centres undefined),"inconclusive: 56.2 µM [inhibitor, partial curve, poor fit]",–
Cc1ccc(CCNC(=O)CS(=O)Cc2nc(-c3cccs3)oc2C)cc1 (centres undefined),inactive,–
COc1ccccc1Nc1nn2c(=O)c3ccc(C(=O)N4CCC(C)CC4)cc3nc2s1,"inconclusive: 56.2 µM [inhibitor, partial curve, poor fit]",–
COc1cc(/C=N/N2C(=O)CSC2=S)ccc1O,"inconclusive: 79.4 µM [inhibitor, partial curve, poor fit]",–
C/C(CC(=O)Nc1ccc2c(c1)OCCO2)=N\NC(=O)COc1ccccc1,inactive,–

Structure (SMILES),Potency,"activity change, negative = inhibition"
COc1ccccc1NS(=O)(=O)c1cccc(NC(=O)Nc2ccccc2)c1,–,inconclusive: -30.8% [inhibitor]
CCOC(=O)c1c(C)c(/C=N/Nc2ccccc2)n(C)c1C,"inconclusive: 50.1 µM [inhibitor, partial curve, poor fit]",–
O=C(c1nc(-c2ccc(Cl)cc2)n2c1CCCCC2)N1CCN(c2ccccc2F)CC1,inactive,–
Cn1ncc2c(C(=O)N3CCC(C#N)CC3)cc(-c3cc(Cl)cc(Cl)c3)nc21,"inconclusive: 7.08 µM [inhibitor, full curve, poor fit]",–
CCCC(=O)Nc1nn(C)c2nc3ccc(C)cc3cc12,"inconclusive: 100 µM [inhibitor, single point]",–
COc1ccccc1NC(=O)N(Cc1ccco1)Cc1cc2cc(C)cc(C)c2[nH]c1=O,inactive,–
FC(F)(F)c1cc(-c2cccs2)nc(N2CCOCC2)n1,"inconclusive: 31.6 µM [inhibitor, partial curve, poor fit]",–
COc1ccc(CNC(=S)Nc2ccc3nc(N4CCN(C)CC4)cc(C)c3c2)cc1,"inconclusive: 50.1 µM [inhibitor, partial curve, poor fit]",–
Cc1ccc(CS(=O)(=O)c2cn(CC(=O)N(C)c3ccccc3)c3ccccc23)cc1,"inconclusive: 56.2 µM [inhibitor, partial curve, poor fit]",–
Cc1[nH]c(=O)c(C(=O)/C=C/c2ccccc2)c2c1CCCC2,"inconclusive: 12.6 µM [inhibitor, partial curve, poor fit]",–
O=C(NC(=S)N(Cc1ccccc1)Cc1ccccc1)C1CCCCC1,"inconclusive: 28.2 µM [inhibitor, partial curve]",–
Cc1ccc(NC(=O)c2ncn(CCCNCc3ccc4c(c3)OCO4)n2)cc1C,"inconclusive: 39.8 µM [inhibitor, partial curve]",–
COC(=O)N1CCCCC12Cc1ccccc1NC2=O (centres undefined),inactive,–
CCOc1ccc(NC(=O)CN(C)C(=O)CCNC(=O)c2ccccc2Cl)cc1OCC,inactive,–
CSc1nc2nc(-c3ccccc3)cc(=O)n2[nH]1,"inconclusive: 50.1 µM [inhibitor, partial curve, poor fit]",–
COc1ccc(C(=O)N2CCC3(CC2)NC(=O)N(c2cccc(F)c2)N3)cc1OC,"inconclusive: 5.62 µM [inhibitor, full curve, poor fit]",–
O=S(=O)(Nc1ccc(-c2csc(-c3ccccc3)n2)cc1)c1ccc(F)cc1,"inconclusive: 28.2 µM [inhibitor, single point]",–
Cn1c(=O)c2[nH]c(CCC3CCCC3)nc2n(C)c1=O,inactive,–
CC(C)NC(=O)N(C)C[C@H]1OCCCC[C@H](C)Oc2ccc(NS(=O)(=O)c3ccccc3)cc2C(=O)N([C@H](C)CO)C[C@H]1C,"inconclusive: 79.4 µM [inhibitor, single point]",–
CCCCCCCCOC(=O)c1cc([N+](=O)[O-])c(Sc2ncnc3nc[nH]c23)c([N+](=O)[O-])c1,"inconclusive: 44.7 µM [inhibitor, partial curve, poor fit]",–
Cc1oc(-c2nc(C#N)c(N(C)C)o2)cc1S(=O)(=O)N(C)c1ccccc1,"inconclusive: 79.4 µM [inhibitor, single point]",–
O=C(CCCCn1c(=O)c2ccccc2n(Cc2ccc(Cl)cc2)c1=O)NCc1ccccc1Cl,"inconclusive: 100 µM [inhibitor, single point]",–
Cc1cc(C)cc(-n2ncc3c(NCC4CCCO4)ncnc32)c1 (centres undefined),inactive,–

# Single records, from the list above. Values in the order: Potency	activity change, negative = inhibition
# Cc1[nH]c(=O)c(C(=O)/C=C/c2ccccc2)c2c1CCCC2 is listed as inconclusive: 12.6 µM [inhibitor, partial curve, poor fit]	–
# COc1ccccc1NS(=O)(=O)c1cccc(NC(=O)Nc2ccccc2)c1 is listed as –	inconclusive: -30.8% [inhibitor]
